Measured values: paper PMC6488192 (2019)
No constants are given. Whether binding was seen depends on the method and setting. Binding seen in cells or lysates may run through a third protein. Binding can be weak; no strength is given.

Key:
Assay in all cases: pull-down; TAP-tagged bait recovered on Dynabeads IgG from whole-cell or mitochondria-enriched T. brucei extract (~2 mg protein, with RNase inhibitor); washes 150 mM NaCl, 1 mM EDTA, 10 mM MgOAc, 0.1% NP-40, 25 mM Tris pH 8.0; endogenous partners by Western blot, REL1 by radiolabelled self-adenylation; mutants normalised to WT
[1] = target: ^H2F1 Znf1 R/K>A with TAP tag (T. brucei) (UniProt Q585P3)
[2] = target: ^H2F1 Znf2 R/K>A with TAP tag (T. brucei) (UniProt Q585P3)
[3] = target: ^H2F1 Znf3 R/K>A with TAP tag (T. brucei) (UniProt Q585P3)
[4] = target: ^H2F1 Znf4 R/K>A with TAP tag (T. brucei) (UniProt Q585P3)
[5] = target: ^H2F1 Znf5 C2>A2 with TAP tag (T. brucei) (UniProt Q585P3)
[6] = target: ^H2F1 Znf5 R/K>A with TAP tag (T. brucei) (UniProt Q585P3)

Measured: binding

B1: REH2-Associated Factor 1 (^H2F1), endogenous (protein, UniProt Q585P3 23-524)
chain: CHHPLRIPSVQLAAPRSHTHEDIAYASCPACSRVVHMCDMLTHLITAHRELDQTHCRKMCTERLALYERVIGVPLKKSELTSSGRRVLDFLPTVLPTGYMCNWCDRRSDVYATRDKFLKHVADVHTDIDLEEVEPHVPLPPRGVVVEKSNGDGGPQPTRRLNGVVAVAEKSEPINAVPRILGISLPRGVDRPLKATAQFSDTEFPCELCNRTFNSEIDLLQHLETRHPDGTAEGPAGVDSAAIADVAQFSAKEATTGGDQRVHVICDLCVSSSKVYKMPSALFSHIRFKHPNEDAAFHVERLIREQKTVSSFVCTVCQKAFASAAALDGHFNSKHAEQGEAQNVVGRVTANNCWWCHDCEKGFSSAKGLHGHMQNKHGLSSQTHPCPACKRVFADIYSLEEHLSLQHKTIRLSDIGLLTHVKCSTCERFFLSHEDLHRHAVKHHKKDPRAPAQPFEAPTSASHVAASTSAAVPSEVEATASPQGPRKVKKRKKTTEVSEVTS
binds: all assays above
